For one series, the system named is mean corpuscular volume. Nature of the series: mean corpuscular volume (MCV), full blood cell count. Details: species or system human. The settings on record: Example 28, Table 1; n = 10.
A further series has as its system lymphocytes (LYMPHO). Kind of series: lymphocytes (LYMPHO) determination. The settings on record: Example 3; whole blood; N 48. On the set-up: species or system human.

Eight compounds from patent publication US10969396B2, “In vitro method, use of an agent and collection device for the inhibition of coagulation in blood” (priority 2013, dated 2021) can be followed below.

As for `O=C(O)c1c(C(=O)O)c(C(=O)O)c(C(=O)O)c(C(=O)O)c1C(=O)O` [MELA, mellitic acid], in the series with mean corpuscular volume, the MCV was 94.5 fL.
Take `O=C([O-])CN(CCN(CC(=O)[O-])CC(=O)O)CC(=O)[O-].[K+].[K+].[K+]` [K3EDTA (BD), tripotassium EDTA, reference compound]: in the series with lymphocytes (LYMPHO), the “LYMPHO Mean” value is reported as 32.000%. This compound also gave an MCV with mean corpuscular volume of 92.1 fL.
Compound `O=C(O)CN(CCN(CC(=O)O)CC(=O)O)CCN(CC(=O)O)CC(=O)O` [DTPA, diethylenetriaminepentaacetic acid] returned an MCV in the series on mean corpuscular volume of 93.6 fL.
Compound `O=C(O)C1OC(C(=O)O)C(C(=O)O)C1C(=O)O` (stereo not shown) [THTCA, Tetrahydrofuran-2,3,4,5-tetracarboxylic acid] showed an MCV with mean corpuscular volume of 96.0 fL.
In the series with mean corpuscular volume, `O=C(O)CN(CCN(CC(=O)O)CC(=O)O)CC(=O)O` [EDTA, ethylenediaminetetraacetic acid] displayed an MCV of 94.4 fL.
For `O=C(O)c1cc(C(=O)O)c(C(=O)O)c(C(=O)O)c1C(=O)O` [BPCA, benzenepentacarboxylic acid], the MCV in the series on mean corpuscular volume is 101 fL.
Regarding `O=C(O)CC(O)(CC(=O)O)C(=O)O` [CA, Citric acid monohydrate], in the series with lymphocytes (LYMPHO), the “LYMPHO Mean” value turned out to be 32.05%. Also, the MCV in the series with mean corpuscular volume is 93.0 fL.
Consider `O=C(O)CC(CC(=O)O)C(=O)O` [TCA, tricarballylic acid], for which the MCV in the series on mean corpuscular volume came out at 96.7 fL.
